Results taken from PMC7957392, “Yeast translation elongation factor eEF3 promotes late stages of tRNA translocation” (The EMBO Journal, 2021).

Chains of the proteins cited; added tags and fusions are not shown. Lines headed by an entry give the natural chain unless they say otherwise; changes in a name come on top.
UniProt P07280: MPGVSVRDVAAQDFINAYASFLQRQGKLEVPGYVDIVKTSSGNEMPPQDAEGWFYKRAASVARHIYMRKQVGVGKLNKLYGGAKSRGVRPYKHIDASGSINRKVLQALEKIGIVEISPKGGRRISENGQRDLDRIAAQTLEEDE
UniProt P0C0W9: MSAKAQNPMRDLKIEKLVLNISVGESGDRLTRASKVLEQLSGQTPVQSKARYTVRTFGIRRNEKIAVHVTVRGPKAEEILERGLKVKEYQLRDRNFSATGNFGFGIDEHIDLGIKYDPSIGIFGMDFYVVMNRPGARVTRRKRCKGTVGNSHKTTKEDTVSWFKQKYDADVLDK

Biological target: T1, eEF3 (yeast translation elongation factor 3), C-terminally TAP-tagged (S. cerevisiae) (UniProt P16521)
T1 sequence: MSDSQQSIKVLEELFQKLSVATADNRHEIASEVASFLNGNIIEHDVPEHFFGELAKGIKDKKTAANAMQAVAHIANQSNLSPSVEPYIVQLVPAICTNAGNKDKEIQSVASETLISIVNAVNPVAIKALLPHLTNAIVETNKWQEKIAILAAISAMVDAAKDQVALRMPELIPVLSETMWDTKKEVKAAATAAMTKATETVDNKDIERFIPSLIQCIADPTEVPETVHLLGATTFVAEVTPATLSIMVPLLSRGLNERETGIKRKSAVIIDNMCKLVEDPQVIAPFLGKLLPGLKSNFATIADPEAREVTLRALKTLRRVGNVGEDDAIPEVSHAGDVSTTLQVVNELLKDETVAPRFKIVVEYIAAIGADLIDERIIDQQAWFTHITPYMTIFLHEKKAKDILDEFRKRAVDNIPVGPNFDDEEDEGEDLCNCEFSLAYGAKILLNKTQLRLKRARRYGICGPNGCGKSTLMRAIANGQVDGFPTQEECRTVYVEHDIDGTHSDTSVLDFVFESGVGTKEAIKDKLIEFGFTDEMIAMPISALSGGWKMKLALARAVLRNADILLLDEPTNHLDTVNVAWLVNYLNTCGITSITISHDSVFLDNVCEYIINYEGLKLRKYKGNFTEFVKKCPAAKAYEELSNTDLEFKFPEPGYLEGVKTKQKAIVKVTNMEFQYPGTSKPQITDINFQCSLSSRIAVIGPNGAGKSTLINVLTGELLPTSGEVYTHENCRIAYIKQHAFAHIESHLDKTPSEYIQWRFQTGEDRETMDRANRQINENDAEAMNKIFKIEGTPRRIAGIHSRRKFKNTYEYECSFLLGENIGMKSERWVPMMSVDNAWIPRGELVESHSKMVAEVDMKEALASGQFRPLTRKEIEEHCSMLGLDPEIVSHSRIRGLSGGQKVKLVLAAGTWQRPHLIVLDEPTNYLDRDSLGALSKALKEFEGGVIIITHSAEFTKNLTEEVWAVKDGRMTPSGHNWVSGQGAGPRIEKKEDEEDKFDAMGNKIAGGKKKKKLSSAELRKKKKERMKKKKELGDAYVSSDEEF
Assay: cryo-EM structure; native eEF3-80S complex from the eEF3-TAP pull-out, eluted with TEV protease in buffer 30 with 1 mM ADPNP, cross-linked with 0.02% glutaraldehyde; group I particles sorted with a mask on eEF3, 3.3 Å, multi-body refinement

binding | Substance
binds | ribosomal protein eS19 (40S subunit head) (from UniProt P07280)
binds | ribosomal protein uL5 (60S subunit) (from UniProt P0C0W9)

No constants are given. Whether binding was seen depends on the method and setting. Binding calls can cover weak binding; strength is not graded here. Where a sequence is shown, tags or fusion partners need not be part of it.
